Article PMC10600341
No constants are given. Whether binding was seen depends on the method and setting. In cells and extracts the contact can be indirect. Binding can be weak; no strength is given.

Chains of the proteins cited; added tags and fusions are not shown. Lines headed by an entry give the natural chain unless they say otherwise; changes in a name come on top.
UniProt P70278: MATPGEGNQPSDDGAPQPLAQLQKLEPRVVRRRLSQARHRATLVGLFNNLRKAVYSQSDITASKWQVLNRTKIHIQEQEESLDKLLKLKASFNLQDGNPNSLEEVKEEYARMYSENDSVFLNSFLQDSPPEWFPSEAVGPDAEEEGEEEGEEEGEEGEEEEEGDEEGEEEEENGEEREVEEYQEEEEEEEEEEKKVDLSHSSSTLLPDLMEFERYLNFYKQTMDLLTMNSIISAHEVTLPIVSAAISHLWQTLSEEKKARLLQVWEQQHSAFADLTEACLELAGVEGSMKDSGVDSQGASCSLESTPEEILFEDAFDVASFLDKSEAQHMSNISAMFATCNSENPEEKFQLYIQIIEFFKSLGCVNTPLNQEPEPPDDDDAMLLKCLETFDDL

B1: meiosis initiator (MEIOSIN) (protein, UniProt A0A5K7RLP0 1-589)
chain: MLGSDKFSCFSDQHRARSPSPTDRKDKKNHTNKLRELALLIPVTMKTRDKKYTKKEILLRVLHYIQYLQRNIDMTKALLKLHSSNGKGRFVGPGLNPSAGQTQQQHSTPSSSQKPSLWSTSSKPRKKKFTRVSEHPSWPYNPRRSLALDQAENPNTIHPGLKEENEECATYPGVLSPSTYPTTEPSVSEGDGQGAQLVFLDMAQNIFAYDILSDHAVEVQGGEPNADIKVQRSFFLTRAQPCVSSCRQKLFLCTSSEADKEAPDSDPWLPVWTSEDSPNGSPLALGSSQINTWHVADYLNEILGVSSSLFSSPSKILPDHVLEDGTYFLTEGLLESSPATCEVESPQEKEVSSEGPTGPPNFQSSVSLDHCYLSLSENVKVLSNCGSSSESTDTESLWGQEEVRGVATYPRRTGVFSLAQPSVLQQANPEGLQTSSDEDRDYTWTPTGQSSGLPVASKKIKKVQASQGPVKPKDSRKACPGQVKKKCVNGFIMFCRMNRKQYIRACPGTASTAATKDLAQLWRGMTLEEKKPYCTKARRFSRQNNRIVKQENSSSEDDDGETPKPFYQLLAEKAQVSLGLTSLPTPNCQ
B2: Retinoblastoma protein RB1 (protein, UniProt P13405 1-921)
chain: MPPKAPRRAAAAEPPPPPPPPPREDDPAQDSGPEELPLARLEFEEIEEPEFIALCQKLKVPDHVRERAWLTWEKVSSVDGILEGYIQKKKELWGICIFIAAVDLDEMPFTFTELQKSIETSVYKFFDLLKEIDTSTKVDNAMSRLLKKYNVLCALYSKLERTCELIYLTQPSSALSTEINSMLVLKISWITFLLAKGEVLQMEDDLVISFQLMLCVVDYFIKFSPPALLREPYKTAAIPINGSPRTPRRGQNRSARIAKQLENDTRIIEVLCKEHECNIDEVKNVYFKNFIPFINSLGIVSSNGLPEVESLSKRYEEVYLKNKDLDARLFLDHDKTLQTDPIDSFETERTPRKNNPDEEANVVTPHTPVRTVMNTIQQLMVILNSASDQPSENLISYFNNCTVNPKENILKRVKDVGHIFKEKFANAVGQGCVDIGVQRYKLGVRLYYRVMESMLKSEEERLSIQNFSKLLNDNIFHMSLLACALEVVMATYSRSTLQHLDSGTDLSFPWILNVLNLKAFDFYKVIESFIKVEANLTREMIKHLERCEHRIMESLAWLSDSPLFDLIKQSKDGEGPDNLEPACPLSLPLQGNHTAADMYLSPLRSPKKRTSTTRVNSAANTETQAASAFHTQKPLKSTSLALFYKKVYRLAYLRLNTLCARLLSDHPELEHIIWTLFQHTLQNEYELMRDRHLDQIMMCSMYGICKVKNIDLKFKIIVTAYKDLPHAAQETFKRVLIREEEFDSIIVFYNSVFMQRLKTNILQYASTRPPTLSPIPHIPRSPYKFSSSPLRIPGGNIYISPLKSPYKISEGLPTPTKMTPRSRILVSIGESFGTSEKFQKINQMVCNSDRVLKRSAEGGNPPKPLKKLRFDIEGADEADGSKHLPAESKFQQKLAEMTSTRTRMQKQRMNESKDVSNKEEK
B3: p107/RB-Like1 (protein, UniProt Q64701 1-1063)
chain: MFEDEPHAEGAAAVAAAREALQALCQELNLDEGSAAEALDDFTAIRGNYSLEGEVIHWLACSLYVACRKSIIPTVGKGVMEGNCVSLTRILRSAKLSLIQFFSKMKKWMDMSNLPQEFRERIERLERNFEVSTVIFKKFEPIFLDIFQNPYEEPPKLPRSRKQRRIPCSVKDLFNFCWTLFVYTKGNFRMIGDDLVNSYHLLLCCLDLIFANAIMCPNRRDLLNPSFKGLPSDFHAPDFKAAEEPPCIIAVLCDLHDGLLVEAKGIKEHYFKPYISKLFDKKILKGECLLDLSSFTDNSKAVNKEYEEYVLTVGDFDERIFLGADAEEEIGTPRKFTADTPFGKLTSQASVECNLQQHFEKKRSFAPSTPLTGRRYLQEKEAVTTPVASATQSVSRLQSIVAGLKSAPSEQLLNIFESCMRNPMGNIIKIVKGIGETFCQHYTQSTDKQPGSHIDFAVNRLKLAEILYYKILETIMVQETRRLHGMDMSVLLEQDIFHKSLMACCLEIVLFAYSSPRTFPWIIEVLDLQPFYFYKVIEVVIRSEEGLSRDMVKHLNSIEEQILESLAWTNNSALWEALHASANRVPSCEEVIFPNNFEIGNGGNVQGHLPMMPMSPIIHPRVKEVRTDSGSLRQDMQPLSPISVHERYSSPAAGSAKRRLFGDDPPKDTLMDKIMAEGTKLKIAPSSVTAESLSISPGQALLTMATTTVTGTTGRKVTVPLHGIANDAGEITLVPISMNPTQESTAESPVSLTAQSLIGTSPKQTHLTKAQDAHLTGVSKPKRTGSLALFYRKVYHLASVRLRDLCLKLDVSNELRRKIWTCFEFTLVHCPDLMKDRHLDQLLLCAFYIMAKVTKEERTFQEIMKSYRNQPQANSHVYRSVLLKSIPGGVVVYNGDCEMTDGDIEDATKTPNCSSEPVKEERGDLIKFYNTVYVGRVKSFALKYDLSNQDHIMDAPPLSPFPHIKQQPGSPRRISQQHSLYVSPHKNGAGLTPRSALLYKFNGSPSKSLKDINNMIRQGEQKTKKRVIAISGDADSPAKRLCQENDDVLLKRLQDVVSERANH

Biological target: 3xFLAG-HA tagged mutant STRA8 lacking the LXCXE motif (STRA8 ΔLXCXE) (mouse) (UniProt P70278)
Test: co-IP; tandem affinity purification with anti-FLAG M2 beads (elution with 3xFLAG peptide) and then anti-HA beads from chromatin-bound testis extracts of 10 to 12-day old knock-in mice; washes with high salt extraction buffer (400 mM KCl); western blot; non-tagged wild-type testis as negative …

Binder | binding
B1 | binds
B2 | no binding
B3 | no binding
